Where two headings read alike, the source gives them in different places. These are yes or no findings as the source states them, for the method shown. In cells and extracts the contact can be indirect. Some entries that bind do so weakly or less than the wild type.
Tests used:
Test in all cases: co-IP
[1] = biological target: P426A/P437A mutant (2P-A) FOXO3-FLAG (UniProt O43524)
[2] = biological target: wildtype (WT) FOXO3-FLAG (UniProt O43524)
[3] = biological target: P426A/P437A mutant (2P-A) FOXO3-FLAG (UniProt O43524); remark: listed apart in the source

The chains behind the UniProt entries cited, without tags or fusion partners. Where a name states a change or a piece, a line headed by the entry shows the natural chain unless it says otherwise.
UniProt O43524: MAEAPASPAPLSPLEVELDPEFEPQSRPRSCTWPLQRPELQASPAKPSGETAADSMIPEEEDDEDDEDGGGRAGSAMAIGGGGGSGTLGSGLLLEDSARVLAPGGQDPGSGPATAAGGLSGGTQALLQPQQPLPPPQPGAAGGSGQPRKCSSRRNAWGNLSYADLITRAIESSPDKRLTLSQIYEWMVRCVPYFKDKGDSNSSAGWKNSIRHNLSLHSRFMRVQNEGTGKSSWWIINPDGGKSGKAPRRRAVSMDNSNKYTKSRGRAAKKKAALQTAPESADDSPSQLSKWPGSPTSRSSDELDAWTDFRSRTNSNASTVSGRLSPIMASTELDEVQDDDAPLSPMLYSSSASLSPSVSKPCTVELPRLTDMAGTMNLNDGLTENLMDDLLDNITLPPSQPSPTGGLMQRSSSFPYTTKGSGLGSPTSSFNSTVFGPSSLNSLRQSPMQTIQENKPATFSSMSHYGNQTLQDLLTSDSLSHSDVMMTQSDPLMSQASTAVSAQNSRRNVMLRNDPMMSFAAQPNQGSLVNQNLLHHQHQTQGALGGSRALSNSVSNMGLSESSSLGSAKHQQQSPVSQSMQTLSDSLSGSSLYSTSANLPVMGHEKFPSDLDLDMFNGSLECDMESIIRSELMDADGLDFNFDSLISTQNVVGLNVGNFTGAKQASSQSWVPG
UniProt Q9H6Z9: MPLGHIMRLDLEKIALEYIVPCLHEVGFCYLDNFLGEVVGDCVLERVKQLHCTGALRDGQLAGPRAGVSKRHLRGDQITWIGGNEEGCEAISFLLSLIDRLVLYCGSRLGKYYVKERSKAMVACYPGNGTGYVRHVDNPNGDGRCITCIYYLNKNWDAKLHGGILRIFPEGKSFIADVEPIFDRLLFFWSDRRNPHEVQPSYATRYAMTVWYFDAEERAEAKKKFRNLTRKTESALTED

PHD3-V5 (from UniProt Q9H6Z9 1-239) (enzyme)
binding [1]: no binding (condition: without DMOG)
binding [2]: binds
binding [3]: binds

Reference: publication doi:10.1101/2024.10.01.616066
